Primary screen of a compound library

Protein sequences, listed by entry. Tags and fused reporters are not part of them.
UniProt E9BF75, entry or part of it: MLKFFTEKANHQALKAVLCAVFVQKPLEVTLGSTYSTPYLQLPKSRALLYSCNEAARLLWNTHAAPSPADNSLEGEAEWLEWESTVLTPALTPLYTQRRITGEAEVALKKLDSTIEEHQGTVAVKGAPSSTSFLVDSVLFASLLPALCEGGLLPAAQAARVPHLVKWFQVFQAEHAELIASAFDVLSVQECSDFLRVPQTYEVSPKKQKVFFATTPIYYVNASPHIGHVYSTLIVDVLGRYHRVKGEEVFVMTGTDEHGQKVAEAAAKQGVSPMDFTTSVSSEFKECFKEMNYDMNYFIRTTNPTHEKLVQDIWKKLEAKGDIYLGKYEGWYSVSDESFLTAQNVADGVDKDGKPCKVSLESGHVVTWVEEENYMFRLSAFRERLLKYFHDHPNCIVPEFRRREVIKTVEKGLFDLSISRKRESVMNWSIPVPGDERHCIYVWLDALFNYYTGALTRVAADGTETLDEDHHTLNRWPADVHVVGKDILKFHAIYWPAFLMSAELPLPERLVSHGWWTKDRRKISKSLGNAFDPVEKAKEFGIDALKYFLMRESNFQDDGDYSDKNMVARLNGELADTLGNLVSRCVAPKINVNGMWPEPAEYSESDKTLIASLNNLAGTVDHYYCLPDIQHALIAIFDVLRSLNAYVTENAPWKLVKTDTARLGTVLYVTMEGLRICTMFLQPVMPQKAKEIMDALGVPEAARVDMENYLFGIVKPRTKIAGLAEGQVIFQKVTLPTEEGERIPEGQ

Source: ChEMBL document CHEMBL3988442, “University of Dundee, Small-Polar-MMV Screening Library” (2021).

Mtb heat-shock: 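Assay on Mycobacterium tuberculosis, filed only as a heat shock assay from Cornell; the read-out is not stated. The concentration is filed as 10 mM, unlikely as a test dose, so the dose is not known. The record gives no direction; compounds that gave an IC50 in retests scored well above the rest, so higher reads as stronger inhibition. Of about 69,000 compounds tested this way, about 930 (1.4%) reached 50% or more in at least one test.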
LdMetRS: 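Methionyl-tRNA synthetase (putative), Leishmania donovani (UniProt E9BF75). Primary screen of methionyl-tRNA synthetase; the read-out is not stated. The test concentration is not given. Values are per cent inhibition. About 68,000 compounds were tested under these conditions; 0.035% (about 24) showed 50% or more at least once.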
Mtb growth Cornell: 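Whole-cell assay for inhibitors of Mycobacterium tuberculosis growth, labelled Cornell in the record; the read-out is not stated. The concentration is filed as 10 mM, unlikely as a test dose, so the dose is not known. The record gives no direction; compounds strong in two other growth screens of this library score well above the rest, so higher reads as stronger inhibition. About 53,000 compounds were tested under these conditions; 1.7% (about 900) showed 50% or more at least once.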

All values are in %.
The controls that fix the scale are not given in the record; negative values are as filed.
The compounds are a random part of those screened.
A dash means the value is not listed here; it may have been measured.

compound,Mtb heat-shock,LdMetRS,Mtb growth Cornell
Cc1oc(-c2ccccc2)nc1CN1CCC(c2ccnn2C)CC1,9.83,15.57,24.84
Cc1noc([C@H]2C[C@H]3CN(C(=O)Cc4ccsc4)CC[C@H]3O2)n1,-,7.19,-
Cc1cccc(C(=O)N2CCC(c3n[nH]c(C4CC4)n3)CC2)c1,-21.91,11.17,-23.28
CCNC(=O)CC1CC2(CCN(C(C)=O)CC2)c2cc(F)ccc21 (configuration not stated),1.198,16.29,-13.71
Cc1cnc(-c2nc(-c3cccc(CN4CCOCC4)c3)no2)cn1,-33.37,5.645,-46.17
Cc1cnc2cc(C3CCN(C(=O)c4ccncc4)CC3)[nH]c2n1,11.57,13.55,-31.95
CC(C)(NC(=O)C1CCCN(C2CCCC2)C1)c1nnc(N)s1 (configuration not stated),-1.841,-1.818,-10.2
C1CC(c2noc(C3CC3)n2)N(Cc2nc(C3CC3)no2)C1 (configuration not stated),-14.2,13.8,-
O=C(O)C(F)(F)F.[H][C@@]12CN(C(=O)c3ccc(C)nc3)C[C@]1([H])OCCN2C,3.005,-,5.505
COCCN1CCN(C(=O)c2ccncc2F)Cc2cccnc21,4.086,6.224,-
Cc1ccc(C(NC(=O)CN2CCc3c(ncn3C)C2)C2CC2)cc1 (configuration not stated),1.717,14.09,-
CCn1cc(S(=O)(=O)N2CCC(C3CCCCN(C)C3=O)CC2)c(C)n1 (configuration not stated),-23.57,0.9434,-34.82
CN(C)C(=O)COC1COC2(CCN(CC3CCOCC3)CC2)C1.O=C(O)C(F)(F)F (configuration not stated),-2.67,-,-14.71
CC(Cn1cccn1)NC(=O)NCCN1CCCCCC1=O (configuration not stated),10.34,4.348,-18.14
Fc1ccccc1CN1CCCN(c2ncnc3[nH]ccc23)CC1,19.88,7.645,14.79
COc1cc2cc(C(=O)O)n(C)c2c(OC)c1OC,-9.833,5.394,-
O=C(NCc1cccs1)c1nc2c(o1)CN(c1ncccn1)C2,-2.755,13.41,-1.828
CCC[C@@H]1CN(Cc2c[nH]nc2-c2ccc(OC)cc2)C[C@H]1NC(C)=O,0.9124,18.61,18.68
Cc1nc(C)n(CC2CCCN2CC(=O)NCCC#N)n1 (configuration not stated),5.827,13.31,-11.2
O=C(Cc1ccccc1)N1CCOC(c2nc(-c3ncccn3)no2)C1 (configuration not stated),-19.28,9.896,-9.609
CC(C)(C)[S+]([O-])CCNC(=O)c1csc(NC2CC2)n1 (configuration not stated),-16.11,3.727,-
CN(C)CC1CSCCCN1C(=O)c1cccc(C(F)(F)F)c1 (configuration not stated),-13.33,8.168,-
N#Cc1ccc(CNCCn2cccn2)c(F)c1,-9.072,3.492,-
CC(NC1CCN(CCS(C)(=O)=O)CC1)c1cnn(C(C)C)c1 (configuration not stated),-9.507,2.071,3.424
CN(C(=O)CCC(F)(F)F)c1cccc2ncccc12,15.63,3.125,-5.471
COCCN1CCC(CNc2nccc(-c3cnn(C)c3)n2)CC1,-23.12,-0.6849,-9.234
COc1ccc(-c2ccc(C3CNCCO3)nc2)cc1 (configuration not stated),-,5.882,-
COCCCNC(=O)Nc1cccc(Cl)c1-n1cccn1,5.954,11.49,14.57
CC(Cn1cccn1)NC(=O)NCCCN1CCc2ccccc21 (configuration not stated),2.559,10.14,37.35
CC(C)CN1C[C@H]2CCN(C(=O)C3CCCO3)CC[C@H]2S1(=O)=O (some centres not stated),-,15.58,-
CCc1nnc(CN(C)C(=O)CN2CC(c3ccccc3)CC2=O)o1 (configuration not stated),-21.27,11.72,-
Cn1cc(Cl)cc1C(=O)N1CCCN(Cc2ccccc2)CC1,8.979,17.37,-
CCCC(=O)Nc1cc2c(cc1OC)NC(=O)CC2c1ccc(CC)o1 (configuration not stated),0.5565,10.6,-46.47
COC(=O)c1cnn(-c2cc(Oc3cccc(C)c3)ncn2)c1N,-11.2,1.105,-
CCS(=O)(=O)CC(=O)Nc1c(C)cnn1Cc1cc(F)ccc1F,-11.73,7.038,-13.44
Cn1cc(CN2CCOC3(CCCN(C(=O)c4ccco4)C3)C2)cn1.O=C(O)C(F)(F)F (configuration not stated),-22.05,-,19.17
O=C(NCc1ccccc1Cl)c1[nH]nc2c1CS(=O)(=O)CC2,3.711,25.41,-
Cc1oc(-c2ccco2)nc1CC(=O)NCC(C)(C)N(C)C,-13.56,9.971,12.52
O=C(NCc1cccnc1)C1=NN(c2ccccc2)C(=O)CN1,5.303,8.55,-12.05
COCCNc1nnc(S(=O)(=O)CCC(C)(C)C#N)s1,-23.9,11.05,-
[H][C@@]12COC[C@]1(CNS(C)(=O)=O)CN(C(=O)c1cnccn1)C2,-12.75,-,-16.51
CCC(Nc1nc(CCN)nc2ccccc12)c1cc(C)ccn1 (configuration not stated),3.52,17.37,-8.034
CC(C)n1nnnc1-c1ccc(NC(=O)N(C)CCN(C)C)cc1F,6.662,5.721,-2.582
O=C(c1nc(=O)[nH][nH]1)N1CCC2(CCCCC2)C1,-11.51,8.211,-5.649
O=C(c1c[nH]nn1)N1CCCC1C1CCCCC1 (configuration not stated),9.05,9.025,17.2
O=C(N[C@H]1CCCC[C@@H]1O)c1ccc(-c2nc3ccccc3[nH]2)cc1,47.47,13.06,-9.55
Cc1cc(NC(=O)CCNC(C)(C)c2nc(C)c(C)s2)no1,-34.06,19.05,23.62
c1ccc(N2CCC(c3ccncc3)CC2)cc1,35.63,13.44,34.37
OCC1(CC2CCCCO2)CCN(c2cnc3ccccc3n2)CC1 (configuration not stated),103.4,13.07,107
CC1(c2ccccc2)CCCN(C(=O)c2ccn3nnnc3c2)C1 (configuration not stated),-38.48,6.866,-15.41
CCc1nnc2n1CCN(Cc1ccc3c(c1)OCCO3)C2,-0.1495,7.302,5.313
Cn1nccc1-c1ncc2c(c1C(=O)O)CCN(Cc1ccccc1)C2,-,-1.045,-
c1csc(N2CCN(Cc3cc4n(n3)CCNC4)CC2)n1,-15.73,13.87,12.31
COc1ccccc1CN(C)c1nccc(-c2cn(C)nc2C)n1,0.04408,14.63,36.83
CCOc1ncccc1CNC(=O)Nc1ccccc1,-13.85,10.8,-
CCc1nc(C2CCCN(C(=O)c3ccccc3F)C2)no1 (configuration not stated),-9.31,21.23,-
COc1cnc(N2C[C@H](CO)C[C@H](CN3CCOCC3)C2)nc1,2.297,4.963,34.68
COc1cc(C)c(CN2CCc3nc4ccsc4c(=O)n3CC2)cc1C,-25.66,13.59,3.592
CS(=O)(=O)N1CCCCC12CCCN(Cc1nccs1)C2.O=C(O)C(F)(F)F (configuration not stated),-31.24,-,-12.75
Cc1nc(CN2C[C@@H](NC(=O)C3CCC3)[C@H]3COC[C@H]32)cs1,-,8.511,-
N#Cc1ccc(C(=O)N2CC[C@H]3[C@H]2CCN3CC2CCOCC2)cc1,-,1.12,-
CC(C)c1nc(-c2cc(C(=O)N3CCN(C)CC3)c3ccccn23)cs1.O=C(O)C(F)(F)F,-14.22,-,-33.65
COc1ccc(C)cc1C(=O)NC(CC(=O)O)c1cccs1 (configuration not stated),7.261,12.32,-21.19
O=C(O)C(F)(F)F.O=C(O)C(F)(F)F.[H][C@]12C[C@@H](CN3CCCC3)N(C)[C@@]1([H])CCN(C(=O)c1cc(C)oc1C)C2,8.492,-,19.34
CC(CNC(=O)Nc1ccc(F)cc1-n1cccc1)N1CCOCC1 (configuration not stated),-23.06,14.99,31.56
CCn1ncc2c1CCCC2NCc1cccc2c1OCCO2 (configuration not stated),6.838,10.42,-
Cn1nc(Br)c2c(NCCSCCCO)ncnc21,-4.184,17,26.62
O=C(CN1CC(c2nc(C3CC3)no2)C1)N1CCOCC1.O=C(O)C(=O)O,6.199,-,59.8
O=C([C@@H]1CC[C@@H]2[C@@H](CCN2c2ccncn2)O1)N1CCCCO1,-,12.57,-
COCCC1COC2(CCN(C(=O)c3ccncc3)CC2)C1 (configuration not stated),-,0.995,-
C[C@H](N)Cn1nc(-c2cccs2)oc1=O.Cl,-14.47,-,-13.28
N#Cc1c(Cl)nsc1NCCN1CCOCC1,-1.343,11.32,11.74
O=C(C1CC(=O)N(c2n[nH]c3cc(Br)ccc23)C1)N1CCCC1 (configuration not stated),1.227,18.59,40.83
Cn1cc(CN2CC[C@@H]3[C@@H]2CCN3Cc2ccc3c(c2)OCO3)cn1,-,5.556,-
O=C(O)C(F)(F)F.O=C([C@H]1CCCO1)N1CC[C@H](O)[C@@H]1Cc1ccncc1,-3.087,-,18.96

For reference, 9 entries once more:

compound,Mtb heat-shock,LdMetRS,Mtb growth Cornell
COc1cc2cc(C(=O)O)n(C)c2c(OC)c1OC,-9.833,5.394,-
Cc1cnc2cc(C3CCN(C(=O)c4ccncc4)CC3)[nH]c2n1,11.57,13.55,-31.95
CCNC(=O)CC1CC2(CCN(C(C)=O)CC2)c2cc(F)ccc21 (configuration not stated),1.198,16.29,-13.71
Cn1cc(CN2CC[C@@H]3[C@@H]2CCN3Cc2ccc3c(c2)OCO3)cn1,-,5.556,-
CN(C)C(=O)COC1COC2(CCN(CC3CCOCC3)CC2)C1.O=C(O)C(F)(F)F (configuration not stated),-2.67,-,-14.71
Cn1cc(CN2CCOC3(CCCN(C(=O)c4ccco4)C3)C2)cn1.O=C(O)C(F)(F)F (configuration not stated),-22.05,-,19.17
Cc1nc(CN2C[C@@H](NC(=O)C3CCC3)[C@H]3COC[C@H]32)cs1,-,8.511,-
COc1ccc(-c2ccc(C3CNCCO3)nc2)cc1 (configuration not stated),-,5.882,-
CCn1ncc2c1CCCC2NCc1cccc2c1OCCO2 (configuration not stated),6.838,10.42,-